Data taken from article PMC10093452.
Results are given in words; binding and its absence hold for the method and conditions named. Binding seen in cells or lysates may run through a third protein. Some entries that bind do so weakly or less than the wild type.

The chains behind the UniProt entries cited, without tags or fusion partners.
UniProt Q08024: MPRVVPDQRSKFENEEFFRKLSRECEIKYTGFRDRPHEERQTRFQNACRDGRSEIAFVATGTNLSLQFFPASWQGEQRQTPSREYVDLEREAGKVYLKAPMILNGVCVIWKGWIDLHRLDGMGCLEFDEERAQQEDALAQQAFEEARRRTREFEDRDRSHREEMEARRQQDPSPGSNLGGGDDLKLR
UniProt Q03347: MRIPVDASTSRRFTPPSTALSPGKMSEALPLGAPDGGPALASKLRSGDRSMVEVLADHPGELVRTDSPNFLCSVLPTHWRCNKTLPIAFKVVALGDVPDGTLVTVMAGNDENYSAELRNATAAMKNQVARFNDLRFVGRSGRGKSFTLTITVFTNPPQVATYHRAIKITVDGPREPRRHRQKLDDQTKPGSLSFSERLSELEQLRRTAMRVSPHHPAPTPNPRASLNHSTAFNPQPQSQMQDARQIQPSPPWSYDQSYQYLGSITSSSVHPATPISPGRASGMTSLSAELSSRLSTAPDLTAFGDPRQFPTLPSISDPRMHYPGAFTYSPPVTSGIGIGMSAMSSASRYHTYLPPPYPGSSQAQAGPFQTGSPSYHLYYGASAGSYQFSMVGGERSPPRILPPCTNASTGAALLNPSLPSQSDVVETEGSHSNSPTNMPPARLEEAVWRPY

Molecular target: Myc-Cbfβ (core binding factor β) (UniProt Q08024)
Assay: co-IP; primary articular chondrocytes co-transfected with Myc-Cbfβ and Flag-Runx1 for 24 h; cell lysates (400 μg) bound with anti-Myc at 4 °C overnight, Sepharose A beads 2 h at 4 °C, five washes with lysis buffer; Western blot with anti-Flag or anti-Myc

Flag-Runx1 (runt-related transcription factor 1) (from UniProt Q03347 1-451)
binding: binds
